Data set [1] deals with PARP1 (human) (UniProt P09874). Nature of the data set: EMSA. The conditions noted are these: 500 uM NAD+ (automodified PARP1); EMSA: 50 mM Tris-HCl pH 7.5, 100 mM NaCl, 1 mM DTT, 0.1 mg/ml BSA (oligo dsDNA only), 10 mM MgCl2 if indicated (always for plasmid), 4 C, 30 min; recombinant protein; label: 5'-32P on DNA2 (target strand). (In general: In EMSA bound probe runs differently from free probe, usually more slowly.)

The chains behind the UniProt entries cited, without tags or fusion partners. Where a name states a change or a piece, a line headed by the entry shows the natural chain unless it says otherwise.
UniProt P09874, whole entry: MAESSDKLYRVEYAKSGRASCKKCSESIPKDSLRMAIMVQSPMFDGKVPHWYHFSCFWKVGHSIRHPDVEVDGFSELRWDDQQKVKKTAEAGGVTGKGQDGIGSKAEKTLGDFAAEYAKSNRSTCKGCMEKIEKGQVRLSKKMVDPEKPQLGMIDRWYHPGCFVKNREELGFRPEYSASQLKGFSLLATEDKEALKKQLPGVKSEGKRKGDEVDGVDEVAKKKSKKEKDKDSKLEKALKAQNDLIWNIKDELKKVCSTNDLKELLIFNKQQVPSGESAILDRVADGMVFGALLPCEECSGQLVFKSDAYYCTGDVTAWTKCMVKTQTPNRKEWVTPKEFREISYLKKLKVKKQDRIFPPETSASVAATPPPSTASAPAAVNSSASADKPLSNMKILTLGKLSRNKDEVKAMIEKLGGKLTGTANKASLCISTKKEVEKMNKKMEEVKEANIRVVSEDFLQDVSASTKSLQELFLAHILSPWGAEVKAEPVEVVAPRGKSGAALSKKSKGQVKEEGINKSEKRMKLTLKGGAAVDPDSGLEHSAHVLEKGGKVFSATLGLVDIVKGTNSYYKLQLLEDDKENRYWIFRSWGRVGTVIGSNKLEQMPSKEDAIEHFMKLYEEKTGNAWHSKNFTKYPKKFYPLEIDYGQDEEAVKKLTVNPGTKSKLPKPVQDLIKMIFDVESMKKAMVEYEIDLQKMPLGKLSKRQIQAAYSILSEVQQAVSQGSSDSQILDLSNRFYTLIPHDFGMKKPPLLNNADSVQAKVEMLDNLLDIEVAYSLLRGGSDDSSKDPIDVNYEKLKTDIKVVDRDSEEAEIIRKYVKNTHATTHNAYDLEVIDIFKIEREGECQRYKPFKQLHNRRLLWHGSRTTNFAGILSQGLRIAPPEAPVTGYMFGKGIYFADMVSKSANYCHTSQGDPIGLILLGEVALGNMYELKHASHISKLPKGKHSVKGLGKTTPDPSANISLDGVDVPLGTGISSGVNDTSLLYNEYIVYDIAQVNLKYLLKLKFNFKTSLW
UniProt O88554: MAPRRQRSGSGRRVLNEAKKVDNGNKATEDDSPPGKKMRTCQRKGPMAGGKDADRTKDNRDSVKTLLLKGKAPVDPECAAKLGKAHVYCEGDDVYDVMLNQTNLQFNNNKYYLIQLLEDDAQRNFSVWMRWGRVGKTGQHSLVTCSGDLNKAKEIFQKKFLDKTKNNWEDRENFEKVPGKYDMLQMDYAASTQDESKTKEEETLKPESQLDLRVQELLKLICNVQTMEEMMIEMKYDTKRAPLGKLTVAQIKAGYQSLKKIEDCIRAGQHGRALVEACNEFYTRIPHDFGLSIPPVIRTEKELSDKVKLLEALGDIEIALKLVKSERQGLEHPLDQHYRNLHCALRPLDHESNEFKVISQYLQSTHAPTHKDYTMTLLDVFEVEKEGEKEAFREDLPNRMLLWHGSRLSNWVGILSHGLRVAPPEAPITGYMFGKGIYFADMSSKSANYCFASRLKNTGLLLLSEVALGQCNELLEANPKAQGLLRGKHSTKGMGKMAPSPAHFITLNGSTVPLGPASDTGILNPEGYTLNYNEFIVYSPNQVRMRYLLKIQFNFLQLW

Data set [2] has as its target PARP2 (murine) (UniProt O88554). Description: EMSA. Particulars: 500 uM NAD+ (automodified PARP2); EMSA: 50 mM Tris-HCl pH 7.5, 100 mM NaCl, 1 mM DTT, 0.1 mg/ml BSA (oligo dsDNA only), 10 mM MgCl2 if indicated (always for plasmid), 4 C, 30 min; recombinant protein; label: 5'-32P on DNA2 (target strand).

Construct, isoform or probe ends are uncertain for at least one entry. The comparison behind a weaker result is the experiment's own reference, which may not be listed here.

For “CTGATAACTCAATTTGTAAAAAATGGTACTGAGCA (double strand) [dsDNA1/2*]”, the binding result in data set [1] and in data set [2] was “binds more weakly” in each case.

These data come from publication PMC10686484.
